# Laboratory results: PubChem BioAssay AID1259284 (Sanger Institute, 2017)
# Screen: 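Kinase genes needed for growth or acting with cancer drugs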 (primary screen)
# System: SW48 human colorectal cancer cells
# Knock-down reagent: siRNA pool against human genes
# Challenge: anchor drug BYL719 at 1 µM, cetuximab at 5 µg/ml or trametinib at 10 nM, or DMSO vehicle alone
# Measured: 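Viability scaled to non-targeting control pool, robust z-score from controls, and synergy scores for each drug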
# Reading the numbers: robust z-score, no drug: higher = more cells survive knock-down; viability, no drug: higher = more viable cells; synergy with BYL719 and synergy with trametinib and synergy with cetuximab: higher = stronger combined killing with drug
# Active means: 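Called essential when the robust z-score of viability without drug falls below -3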
# Calls: active = essential without drug; inactive = no change without drug
# Here is an unselected part of 794 deposited reagents. In the full data, 16 (2%) are marked active. 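Calls concern knock-down without drug only; drug synergy was judged apart, with scores above 0.15 taken as synergy.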 A number with no mark means an inactive call. No viability above 1 is reported: the scale is capped. Not given: the amount of reagent, the time to read-out.
Target gene,"robust z-score, no drug","viability, no drug (fraction of control)",synergy with BYL719,synergy with trametinib,synergy with cetuximab
CAMK2A,0.426,1,-0.111,-0.249,-0.045
NRBP1,0.426,1,-0.192,-0.169,-0.154
MVK,-1,0.878,-0.134,-0.163,-0.0981
PANK3,0.426,1,-0.309,-0.184,-0.036
NUAK2,0.426,1,-0.0508,-0.0722,0.101
STK38,-2.96,0.71,-0.0423,0.0765,-0.113
PFKP,0.426,1,-0.0858,-0.0529,-0.147
MAP2K7,-0.02,0.962,-0.13,-0.128,-0.0606
MAP4K3,-1.93,0.798,-0.202,-0.0552,-0.171
PIM2,-1.11,0.868,-0.116,0.0612,0.0623
ULK3,0.426,1,-0.249,-0.0978,-0.165
TNNI3K,0.426,1,-0.111,-0.124,-0.165
FBXW7,0.426,1,-0.235,-0.109,-0.0728
TEC,-0.508,0.92,-0.194,-0.103,-0.076
HASPIN,0.426,1,-0.0404,-0.049,0.0606
PLK3,0.426,1,-0.254,-0.32,-0.165
DAPK2,0.426,1,-0.077,-0.136,-0.031
PI4KA,0.426,1,-0.112,-0.179,-0.0396
FN1,0.426,1,-0.167,-0.17,-0.165
INSR,0.426,1,-0.0411,0.0597,-0.0662
ROS1,0.426,1,-0.0998,-0.0863,0.112
